## Library screen at single concentrations

Amino acid sequences for entries named in this document (tags omitted). Residues count along the entry.
UniProt Q8IDJ8, 1-583: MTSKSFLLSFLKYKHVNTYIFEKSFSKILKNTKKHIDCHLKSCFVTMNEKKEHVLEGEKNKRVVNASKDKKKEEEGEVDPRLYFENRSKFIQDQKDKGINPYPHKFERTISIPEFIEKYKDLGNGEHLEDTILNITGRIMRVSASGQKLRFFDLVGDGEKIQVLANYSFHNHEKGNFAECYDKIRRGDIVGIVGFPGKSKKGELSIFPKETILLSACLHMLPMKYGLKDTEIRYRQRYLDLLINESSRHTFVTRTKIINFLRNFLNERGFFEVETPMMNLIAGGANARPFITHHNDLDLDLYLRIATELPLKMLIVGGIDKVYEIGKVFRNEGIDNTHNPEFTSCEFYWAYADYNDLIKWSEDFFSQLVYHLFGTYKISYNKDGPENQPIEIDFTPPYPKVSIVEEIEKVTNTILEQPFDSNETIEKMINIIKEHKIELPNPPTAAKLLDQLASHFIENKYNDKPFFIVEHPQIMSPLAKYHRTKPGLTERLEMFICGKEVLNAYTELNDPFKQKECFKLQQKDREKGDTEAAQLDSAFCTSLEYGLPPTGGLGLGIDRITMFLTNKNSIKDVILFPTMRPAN
UniProt A4I591, 1-473: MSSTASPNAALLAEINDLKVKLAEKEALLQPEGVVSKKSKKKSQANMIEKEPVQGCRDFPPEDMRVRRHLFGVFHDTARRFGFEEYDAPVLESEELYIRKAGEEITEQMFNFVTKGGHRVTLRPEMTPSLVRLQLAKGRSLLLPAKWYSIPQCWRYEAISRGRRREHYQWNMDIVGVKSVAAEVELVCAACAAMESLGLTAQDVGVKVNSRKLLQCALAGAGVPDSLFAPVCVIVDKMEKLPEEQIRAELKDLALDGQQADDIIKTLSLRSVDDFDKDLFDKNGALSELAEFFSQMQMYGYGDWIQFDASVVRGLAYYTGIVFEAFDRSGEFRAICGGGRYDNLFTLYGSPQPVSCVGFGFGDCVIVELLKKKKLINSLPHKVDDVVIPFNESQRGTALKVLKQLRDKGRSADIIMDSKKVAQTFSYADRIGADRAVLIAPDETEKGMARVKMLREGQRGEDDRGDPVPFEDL
UniProt Q4DA54, 1-478: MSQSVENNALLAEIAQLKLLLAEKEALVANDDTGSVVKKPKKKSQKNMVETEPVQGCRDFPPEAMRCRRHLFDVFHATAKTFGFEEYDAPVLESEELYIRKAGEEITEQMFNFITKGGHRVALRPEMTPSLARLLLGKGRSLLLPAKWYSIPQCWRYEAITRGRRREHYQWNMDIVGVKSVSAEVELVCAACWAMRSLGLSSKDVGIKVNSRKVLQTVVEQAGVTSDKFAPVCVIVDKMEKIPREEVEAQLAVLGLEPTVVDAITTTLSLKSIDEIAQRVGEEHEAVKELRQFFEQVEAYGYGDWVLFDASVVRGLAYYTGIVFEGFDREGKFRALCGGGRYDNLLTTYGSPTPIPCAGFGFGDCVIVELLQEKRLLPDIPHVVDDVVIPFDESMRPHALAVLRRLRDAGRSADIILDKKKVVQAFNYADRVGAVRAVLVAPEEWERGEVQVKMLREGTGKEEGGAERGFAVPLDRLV
UniProt P9WPC5, whole entry: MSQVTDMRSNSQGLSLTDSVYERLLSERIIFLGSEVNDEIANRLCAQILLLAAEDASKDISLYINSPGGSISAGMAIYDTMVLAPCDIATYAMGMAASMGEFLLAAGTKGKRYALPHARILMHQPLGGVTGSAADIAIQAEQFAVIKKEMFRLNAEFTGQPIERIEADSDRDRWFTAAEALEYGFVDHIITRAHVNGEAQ
UniProt P9WPC3, whole entry partner: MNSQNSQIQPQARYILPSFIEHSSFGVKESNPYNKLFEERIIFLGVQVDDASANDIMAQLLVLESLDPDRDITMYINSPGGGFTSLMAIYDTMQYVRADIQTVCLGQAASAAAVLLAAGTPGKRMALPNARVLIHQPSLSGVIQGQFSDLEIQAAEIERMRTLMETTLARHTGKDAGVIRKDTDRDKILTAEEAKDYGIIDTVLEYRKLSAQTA

Measurements from “University of Dundee, Small-Polar-MMV Screening Library” (2021), ChEMBL document CHEMBL3988442.

PfKRS1: 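Lysine-tRNA ligase, Plasmodium falciparum 3D7 (UniProt Q8IDJ8). Enzyme assay of the cytosolic lysyl-tRNA synthetase in 384-well plates, read by luminescence. Compounds at 30 µM. Direction is inferred from only a few compounds that gave an IC50; most scored high, so higher reads as stronger inhibition. Size under these conditions: about 69,000 compounds, about 49 of them at 50% or above in at least one test.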
LiHisRS: 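Enzyme assay of histidyl-tRNA synthetase; the read-out is not stated. Target: Histidine-tRNA ligase, Leishmania infantum (UniProt A4I591). Compounds at 30 µM. The record gives no direction; compounds that gave an IC50 in retests scored well above the rest, so higher reads as stronger inhibition. The assay is labelled LdHisRS but filed under L. infantum. About 69,000 compounds were tested under these conditions; 0.6% (about 410) showed 50% or more at least once.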
TcHisRS: 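Enzyme assay of histidyl-tRNA synthetase; the read-out is not stated. Target: Histidine-tRNA ligase, Trypanosoma cruzi CL Brener (UniProt Q4DA54). Compounds at 30 µM. The record gives no direction; compounds that gave an IC50 in retests scored well above the rest, so higher reads as stronger inhibition. About 69,000 compounds were tested under these conditions; 0.045% (about 31) showed 50% or more at least once.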
Leishmania in macrophages: 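Cell assay of Leishmania donovani living inside macrophages; the read-out is not stated. Compounds at 30 µM. Higher reads as stronger inhibition (inferred: compounds with an IC50 in retests scored well above the rest). Of about 69,000 compounds tested this way, about 1,000 (1.5%) reached 50% or more in at least one test.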
ClpP1P2: 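Protease assay of ClpP1P2, read by the AMC dye that it sets free. Target: ClpP1P2, Mycobacterium tuberculosis (UniProt P9WPC5 and UniProt P9WPC3). Tested at 50 µM. Direction is inferred from only a few compounds that gave an IC50; most scored high, so higher reads as stronger inhibition. Most other retested compounds had strongly negative values. Of about 69,000 compounds tested this way, about 10 (0.015%) reached 50% or more in at least one test.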

Results are given as percent effect. The controls that fix the scale are not given in the record; negative values are as filed. Compounds were drawn at random from those tested, without regard to their results. Two or more numbers in one place are separate tests of the same structure; such repeats can differ widely.

- Cc1ncsc1CN1C[C@H](C(=O)NC2CCCC2)[C@@H]2CCO[C@@H]2C1 : PfKRS1: 0.3187%; LiHisRS: 16.13%; TcHisRS: -4.386%; ClpP1P2: -16.79%
- Cn1nc2c(cc1=O)CN(CC1CCCCO1)CC2 (stereo not drawn) : PfKRS1: 50.47%; LiHisRS: 104.1%; TcHisRS: 9.474%; Leishmania in macrophages: 3.281%; ClpP1P2: -14.34%
- Cc1cc(O)n2nc(C3CCN(C(=O)c4ccccn4)CC3)cc2n1 : PfKRS1: -0.1606%; LiHisRS: 4.196%; TcHisRS: -0.565%; Leishmania in macrophages: -30.04%; ClpP1P2: -4.307%
- Cc1ccc(-c2[nH]c3ccccc3c2C(=O)O)c(C)c1 : PfKRS1: 0.7937%; LiHisRS: -19.31%; TcHisRS: -19.53%; Leishmania in macrophages: 12.49%; ClpP1P2: -3.153%
- CCCn1ccc(C(=O)Nc2ccc3c(c2)C(C)(C)C(=O)N3C)n1 : PfKRS1: -0.2833%; LiHisRS: 2.5%; TcHisRS: 2.484%; Leishmania in macrophages: -32.83%; ClpP1P2: -9.867%
- Cc1ccc(CNC(=O)c2ccc(=O)n(C)n2)c(OCC2CC2)c1 : PfKRS1: 6.261%; LiHisRS: 11.67%; TcHisRS: -1.739%; Leishmania in macrophages: 32.71%; ClpP1P2: -2.205%
- COCCN1C[C@H]2CN(C(=O)c3ccno3)CCN2C1=O : PfKRS1: -1.553%; LiHisRS: 11.11%; TcHisRS: 9.901%; ClpP1P2: 4.671%
- CC(NC(=O)c1cccs1)(C(N)=O)c1cccc(C(F)(F)F)c1 (stereo not drawn) : PfKRS1: -2.4%; LiHisRS: 2.469%; TcHisRS: 0.6135%; Leishmania in macrophages: -42.12%; ClpP1P2: -14.31%
- CN(C)C(=O)CO[C@H]1CN(Cc2ccccc2)[C@@H]2CCCO[C@H]12 : PfKRS1: 4.244%; LiHisRS: 20.55%; TcHisRS: 4.95%; ClpP1P2: 11.16%
- [H][C@@]12CCN(Cc3cccc(C)n3)[C@@]1([H])CCN2C(=O)c1cnoc1C : Leishmania in macrophages: 19.96%
- CC(C)N1CCC(Cc2cncc(-c3cccc(C(=O)O)c3)n2)CC1 : PfKRS1: -2.377%; LiHisRS: 8.247%; TcHisRS: -1.111%; Leishmania in macrophages: 6.927% and -6.921%; ClpP1P2: -6.618%
- CC(=O)NC1CCCN(C(=O)NCc2ccc(-n3cccn3)cc2)C1 (stereo not drawn) : PfKRS1: -0.5969%; LiHisRS: 12.07%; TcHisRS: 8.475%; Leishmania in macrophages: 0.9777%; ClpP1P2: -24.4%
- O=C(NCCCOCC1CC1)Nc1ccc(-n2cncn2)c(F)c1 : PfKRS1: 1.081%; LiHisRS: 5.505%; TcHisRS: 1.176%; Leishmania in macrophages: 8.18%; ClpP1P2: -13.2%
- CC(=O)c1cccc(CN2CC(Oc3ccccc3C)C2)c1 : PfKRS1: 2.021%; LiHisRS: 19.78%; TcHisRS: 6.627%; Leishmania in macrophages: 17.27%; ClpP1P2: -13.69%
- CN1CCC(CCc2ccnc(NC(=O)c3ccccn3)c2)CC1 : PfKRS1: -1.864%; LiHisRS: 2.899%; TcHisRS: 3.03%; Leishmania in macrophages: 38.1%; ClpP1P2: 20.29%
- CC1c2ncc(COc3cccnc3)n2CCN1C(=O)C1=CCCC1.O=C(O)C(F)(F)F (stereo not drawn) : Leishmania in macrophages: 7.863%

Once more, the final 2:

* CN1CCC(CCc2ccnc(NC(=O)c3ccccn3)c2)CC1 : PfKRS1: -1.864%; LiHisRS: 2.899%; TcHisRS: 3.03%; Leishmania in macrophages: 38.1%; ClpP1P2: 20.29%
* CC1c2ncc(COc3cccnc3)n2CCN1C(=O)C1=CCCC1.O=C(O)C(F)(F)F (stereo not drawn) : Leishmania in macrophages: 7.863%